Results are given in words; binding and its absence hold for the method and conditions named. Binding seen in cells or lysates may run through a third protein. Here binding means that the protein was enriched with, or labelled near, the bait; the list need not be complete.

The chains behind the UniProt entries cited, without tags or fusion partners.
UniProt Q96J94: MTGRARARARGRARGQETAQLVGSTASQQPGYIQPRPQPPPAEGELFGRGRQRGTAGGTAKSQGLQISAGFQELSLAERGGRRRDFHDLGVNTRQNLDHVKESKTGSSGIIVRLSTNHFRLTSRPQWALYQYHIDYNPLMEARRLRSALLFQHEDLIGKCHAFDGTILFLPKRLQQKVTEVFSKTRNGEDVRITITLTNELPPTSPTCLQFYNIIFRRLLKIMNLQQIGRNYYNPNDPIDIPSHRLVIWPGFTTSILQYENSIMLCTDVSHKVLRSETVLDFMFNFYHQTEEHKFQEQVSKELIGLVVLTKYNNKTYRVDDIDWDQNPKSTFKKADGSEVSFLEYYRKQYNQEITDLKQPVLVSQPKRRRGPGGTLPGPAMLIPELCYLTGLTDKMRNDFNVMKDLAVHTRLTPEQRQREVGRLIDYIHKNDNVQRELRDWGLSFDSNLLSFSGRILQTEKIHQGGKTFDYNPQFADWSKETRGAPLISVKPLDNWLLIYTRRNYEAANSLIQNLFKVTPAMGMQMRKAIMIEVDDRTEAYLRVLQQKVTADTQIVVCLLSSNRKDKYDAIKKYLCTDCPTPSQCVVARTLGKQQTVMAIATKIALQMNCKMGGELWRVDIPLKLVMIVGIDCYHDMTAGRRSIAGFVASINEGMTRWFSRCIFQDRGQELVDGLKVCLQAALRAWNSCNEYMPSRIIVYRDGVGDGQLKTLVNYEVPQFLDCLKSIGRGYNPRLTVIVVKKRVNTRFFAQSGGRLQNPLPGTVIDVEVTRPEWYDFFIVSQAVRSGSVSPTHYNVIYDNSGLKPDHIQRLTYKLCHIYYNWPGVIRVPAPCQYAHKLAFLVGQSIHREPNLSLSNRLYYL

Here are results for one molecule from publication doi:10.1101/2020.05.03.075390.

The target of this test is PIWIL1 (PIWI-Like 1) (human (endogenous in SNU-1 and AGS)) (UniProt Q96J94). Kind of test: affinity purification with mass spectrometry.

B1: UPF1 (Up-Frameshift-1) (protein, UniProt Q92900 1-1129)
chain: MSVEAYGPSSQTLTFLDTEEAELLGADTQGSEFEFTDFTLPSQTQTPPGGPGGPGGGGAGGPGGAGAGAAAGQLDAQVGPEGILQNGAVDDSVAKTSQLLAELNFEEDEEDTYYTKDLPIHACSYCGIHDPACVVYCNTSKKWFCNGRGNTSGSHIVNHLVRAKCKEVTLHKDGPLGETVLECYNCGCRNVFLLGFIPAKADSVVVLLCRQPCASQSSLKDINWDSSQWQPLIQDRCFLSWLVKIPSEQEQLRARQITAQQINKLEELWKENPSATLEDLEKPGVDEEPQHVLLRYEDAYQYQNIFGPLVKLEADYDKKLKESQTQDNITVRWDLGLNKKRIAYFTLPKTDSGNEDLVIIWLRDMRLMQGDEICLRYKGDLAPLWKGIGHVIKVPDNYGDEIAIELRSSVGAPVEVTHNFQVDFVWKSTSFDRMQSALKTFAVDETSVSGYIYHKLLGHEVEDVIIKCQLPKRFTAQGLPDLNHSQVYAVKTVLQRPLSLIQGPPGTGKTVTSATIVYHLARQGNGPVLVCAPSNIAVDQLTEKIHQTGLKVVRLCAKSREAIDSPVSFLALHNQIRNMDSMPELQKLQQLKDETGELSSADEKRYRALKRTAERELLMNADVICCTCVGAGDPRLAKMQFRSILIDESTQATEPECMVPVVLGAKQLILVGDHCQLGPVVMCKKAAKAGLSQSLFERLVVLGIRPIRLQVQYRMHPALSAFPSNIFYEGSLQNGVTAADRVKKGFDFQWPQPDKPMFFYVTQGQEEIASSGTSYLNRTEAANVEKITTKLLKAGAKPDQIGIITPYEGQRSYLVQYMQFSGSLHTKLYQEVEIASVDAFQGREKDFIILSCVRANEHQGIGFLNDPRRLNVALTRARYGVIIVGNPKALSKQPLWNHLLNYYKEQKVLVEGPLNNLRESLMQFSKPRKLVNTINPGARFMTTAMYDAREAIIPGSVYDRSSQGRPSSMYFQTHDQIGMISAGPSHVAAMNIPIPFNLVMPPMPPPGYFGQANGPAAGRGTPKGKTGRGGRQKNRFGLPGPSQTNLPNSQASQDVASQPFSQGALTQGYISMSQPSQMSQPGLSQPELSQDSYLGDEFKSQIDVALSQDSTYQGERAYQHGGVTGLSQY
On to B1, for which the binding entry is listed as “binds”.
